Laboratory results as given in PMC9909323.
These are yes or no findings as the source states them, for the method shown. In cells and extracts the contact can be indirect. Here binding means that the protein was enriched with, or labelled near, the bait; the list need not be complete.

Amino acid sequences for entries named in this document (tags omitted).
UniProt Q14247: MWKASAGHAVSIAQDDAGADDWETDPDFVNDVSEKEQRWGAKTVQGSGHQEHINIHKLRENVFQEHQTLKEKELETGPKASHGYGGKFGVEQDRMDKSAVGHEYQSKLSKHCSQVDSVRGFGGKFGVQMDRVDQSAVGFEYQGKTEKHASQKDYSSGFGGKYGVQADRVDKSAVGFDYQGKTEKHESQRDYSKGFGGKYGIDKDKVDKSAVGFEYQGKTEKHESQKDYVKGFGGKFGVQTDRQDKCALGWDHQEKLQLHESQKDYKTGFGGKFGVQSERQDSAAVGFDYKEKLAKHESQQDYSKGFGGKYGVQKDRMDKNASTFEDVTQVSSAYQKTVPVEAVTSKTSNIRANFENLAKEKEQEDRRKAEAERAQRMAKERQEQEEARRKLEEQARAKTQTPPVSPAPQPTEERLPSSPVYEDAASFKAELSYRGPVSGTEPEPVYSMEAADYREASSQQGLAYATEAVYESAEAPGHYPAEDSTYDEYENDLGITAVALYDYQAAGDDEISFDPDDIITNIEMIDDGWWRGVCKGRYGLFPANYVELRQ
UniProt P68871: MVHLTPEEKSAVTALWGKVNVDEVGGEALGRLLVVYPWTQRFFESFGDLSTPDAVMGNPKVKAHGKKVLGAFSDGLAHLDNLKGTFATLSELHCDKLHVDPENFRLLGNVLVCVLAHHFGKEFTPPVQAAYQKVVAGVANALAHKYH

Biological target: T1, CDKN2A interacting protein (CDKN2AIP) (UniProt Q9NXV6)
T1 sequence: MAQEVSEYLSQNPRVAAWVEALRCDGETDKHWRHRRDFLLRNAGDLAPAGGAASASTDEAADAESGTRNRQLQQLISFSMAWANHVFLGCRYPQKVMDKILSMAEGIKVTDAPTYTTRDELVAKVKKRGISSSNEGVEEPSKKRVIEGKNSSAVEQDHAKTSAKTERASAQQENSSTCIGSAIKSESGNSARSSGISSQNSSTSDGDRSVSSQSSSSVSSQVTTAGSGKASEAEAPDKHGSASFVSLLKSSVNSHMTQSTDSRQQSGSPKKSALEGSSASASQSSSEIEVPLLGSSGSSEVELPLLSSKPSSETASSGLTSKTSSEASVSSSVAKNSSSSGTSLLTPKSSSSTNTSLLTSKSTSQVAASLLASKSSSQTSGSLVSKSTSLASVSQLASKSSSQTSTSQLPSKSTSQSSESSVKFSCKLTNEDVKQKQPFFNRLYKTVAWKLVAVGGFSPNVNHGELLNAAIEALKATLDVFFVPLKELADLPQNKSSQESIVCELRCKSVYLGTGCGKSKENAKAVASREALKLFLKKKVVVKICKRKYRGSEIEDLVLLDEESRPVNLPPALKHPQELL
Assay: affinity purification with mass spectrometry; IP-MS in NTERA-2 cells transfected with tagged CDKN2AIP/CARM1; lysis in 20 mM Tris-HCl pH 7.4, 150 mM NaCl, 1 mM EDTA, 1% NP-40; anti-CDKN2AIP antibody or control IgG at 4°C overnight, protein A/G magnetic beads; SDS-PAGE, then mass spectrometry

Row | binding | Substance
1 | binds | CTTN (from UniProt Q14247 1-550)
2 | binds | HBB (from UniProt P68871 1-147)
